Results published in publication PMC7819943, “Rice protein-binding microarrays: a tool to detect cis-acting elements near promoter regions in rice”.
Some of the results follow.

By UniProt entry, the sequences of proteins in these tests, tags left out.
UniProt Q0JBA9, entry or part of it: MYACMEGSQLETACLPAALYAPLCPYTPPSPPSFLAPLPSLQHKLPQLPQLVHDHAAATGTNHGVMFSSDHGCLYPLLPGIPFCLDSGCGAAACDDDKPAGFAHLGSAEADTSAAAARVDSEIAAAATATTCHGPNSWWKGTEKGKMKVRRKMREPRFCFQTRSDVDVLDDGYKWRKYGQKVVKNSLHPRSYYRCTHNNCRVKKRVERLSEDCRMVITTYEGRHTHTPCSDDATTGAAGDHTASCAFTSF

Target: OsWRKY34 (Oryza sativa, UniProt Q0JBA9 1-250)
Experiment: protein-binding microarray (RPBM); PBS, 2% BSA, 51.3 ng/ul salmon testes DNA, 50 uM zinc acetate, 200 nM TF, 25 C, 1 h; high values mean tight binding
Details: protein: recombinant; tags: N-terminal polyhistidine and DsRed monomer fusion (pET32a); label: CyDye5-dUTP incorporated in the synthesized complementary strand; 3' TTTTT single-stranded linker to array surface; dsDNA, one strand shown
How it was run: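 For the binding signal, per-feature fluorescence intensity was read in arbitrary units on an Axon 4000B scanner. Before scanning, a 2% BSA-blocked custom Agilent array made double-stranded with Cy5-dUTP was washed after 1 h at 25 °C with 200 nM protein and 50 µM zinc acetate. The proteins were Ni–NTA-purified transcription factors with N-terminal polyhistidine and DsRed fusions, expressed in E. coli BL21-CodonPlus.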

Sequence | binding signal
ATTCCTATGTTTTTCCTGCGCTCCAATCAAACGACAATTCCGGAGTCACCTAGTGCAG | 9150 fluorescence intensity (a.u.)
CGACAACACAGCATCTGTTGGGCCCGATCCACCTATATTACGGAGTCACCTAGTGCAG | 8390 fluorescence intensity (a.u.)
CCACAGCCACGACATCGCCATCAACGCCCTCGAGCTCGCCCGGAGTCACCTAGTGCAG | 8200 fluorescence intensity (a.u.)
ATTACCAAACTATACTACTGCTCGACACGGTTCGTTTTTTCGGAGTCACCTAGTGCAG | 11200 fluorescence intensity (a.u.)
GGCCCATGTGATTCCACTGCCCCATGAGAAGCGCTGCGCGCGGAGTCACCTAGTGCAG | 8390 fluorescence intensity (a.u.)
TCTCTGAAACTACTCTGCTCGCTGCTGTCTCACACTCTCTCGGAGTCACCTAGTGCAG | 9080 fluorescence intensity (a.u.)
GTCTTTTGGTGGGTTGGAGATCATTTTCATATCCCATTAGCGGAGTCACCTAGTGCAG | 9160 fluorescence intensity (a.u.)
CTGCCTCCTCCTTCTGTGATCACTTCTTGCAAACCAATCGCGGAGTCACCTAGTGCAG | 8050 fluorescence intensity (a.u.)
GTATTATCTTTTTACCCTTTAAACTTCTGATCTTGGTTGTCGGAGTCACCTAGTGCAG | 9080 fluorescence intensity (a.u.)
CCTGGCCTCCTCCCTCTCGCTCTACTCTATCGTCGTCTTCCGGAGTCACCTAGTGCAG | 11700 fluorescence intensity (a.u.)
TTTGCACTCAGACTGTCCTTACTAACTGCTTTTTTTATAACGGAGTCACCTAGTGCAG | 10100 fluorescence intensity (a.u.)
GGGGTGGAATTGTGTTGGGTTTCTTTGGTTGAGGAGAGAGCGGAGTCACCTAGTGCAG | 16000 fluorescence intensity (a.u.)
CCTTAACACTTAATCCATGTGATGCATCTGTCATGCAACTCGGAGTCACCTAGTGCAG | 8250 fluorescence intensity (a.u.)
CTATCGCGGCCGTCCCCGCATCCTACAGCTTTGCCCGCACCGGAGTCACCTAGTGCAG | 9210 fluorescence intensity (a.u.)
ACACTCTCGCCGTCGCCGCCTCCTCGCCTCCGCTTACTCCCGGAGTCACCTAGTGCAG | 16700 fluorescence intensity (a.u.)
TCACCGCTGCACTATCCAGTGTATCTCCACCCATGCGTAACGGAGTCACCTAGTGCAG | 12800 fluorescence intensity (a.u.)
CTCCGTTTCACAATATAAGTCATTCTATTATTTCCCACATCGGAGTCACCTAGTGCAG | 8170 fluorescence intensity (a.u.)
AGTTTGGTTGTAATCCTCCTAATCTTAATCGAATTGCTTCCGGAGTCACCTAGTGCAG | 8370 fluorescence intensity (a.u.)
TCAATTCATACCACCACCTTTTCTTCTCGGCGTGTAATATCGGAGTCACCTAGTGCAG | 12100 fluorescence intensity (a.u.)
CCGATCGCCGCGCCTCCCATTCCATTGCCACCACTGCCTTCGGAGTCACCTAGTGCAG | 8120 fluorescence intensity (a.u.)
GCTGATGGAGTTGCTACCACCGCTTCTATCGCCACGTGTCCGGAGTCACCTAGTGCAG | 8780 fluorescence intensity (a.u.)
GAGTTGAGGCATCATTGTATTCGGTTTTCACCGACCTCCACGGAGTCACCTAGTGCAG | 8260 fluorescence intensity (a.u.)
GTCAAATTCATTGTCTCTACTCTCTAGGCCATTCAGCTAGCGGAGTCACCTAGTGCAG | 9150 fluorescence intensity (a.u.)
CTTTGCTTCGCTTATCGTAATTGCCCACGTGGCACACAGTCGGAGTCACCTAGTGCAG | 10500 fluorescence intensity (a.u.)
GGTTCCATGTTCTATCTGTGGACCTGGGGTTGGATGAATACGGAGTCACCTAGTGCAG | 9640 fluorescence intensity (a.u.)
TAGGTAGGAGTAGGAGTAGTGTGCCGTGAGTTTATCCACGCGGAGTCACCTAGTGCAG | 9030 fluorescence intensity (a.u.)
TAGAACAAACCATTCACTGACATGTAGCTACAACTCGGTTCGGAGTCACCTAGTGCAG | 8050 fluorescence intensity (a.u.)

Sequence | binding signal
ACGAGCCCAGGATGAAGAGGTTTTGGGATGTGTTTTCTTACGGAGTCACCTAGTGCAG | 8170 fluorescence intensity (a.u.)
ATTATTTTGCTCTCCCTCCATTTTTTTCGGTCTCAATATTCGGAGTCACCTAGTGCAG | 8410 fluorescence intensity (a.u.)
AATCGAAACGCTCTCACGGGCTCACCATCAATTCGACGCACGGAGTCACCTAGTGCAG | 9970 fluorescence intensity (a.u.)
GCACGATGCAGCCTCGTCGCCCAGCCGCCCCTACCTGCTTCGGAGTCACCTAGTGCAG | 8440 fluorescence intensity (a.u.)
TTCGCCAGTCCGGTTTGCCGGCCTTGTGCGCTCGTCGTTTCGGAGTCACCTAGTGCAG | 8140 fluorescence intensity (a.u.)
ACCCCATCACGTGTTCCACACACCCGACCGCGACGCGTCGCGGAGTCACCTAGTGCAG | 8420 fluorescence intensity (a.u.)
CTTCTTCTTCGTCTTCCACCCATTGCTTCTTGCTTTCTTTCGGAGTCACCTAGTGCAG | 11200 fluorescence intensity (a.u.)
CTCAGAGACTGCATCTCACCAAACCGCCATTAATTTACACCGGAGTCACCTAGTGCAG | 10100 fluorescence intensity (a.u.)
CTCTCACTCCCGAACGCAGACTAAGTCGCTTTTACTTTTTCGGAGTCACCTAGTGCAG | 8240 fluorescence intensity (a.u.)
TTGGTACTCACATCCACGCCACCTACTAATAACTAGTTAACGGAGTCACCTAGTGCAG | 8560 fluorescence intensity (a.u.)
GCGCCGAGGTCATTAGGCTTGACAGTCGACACCAATTACGCGGAGTCACCTAGTGCAG | 9160 fluorescence intensity (a.u.)
CAGCCTTATCATGTTACATTTTCAACTGCATTATTGTGTTCGGAGTCACCTAGTGCAG | 9670 fluorescence intensity (a.u.)
TTATAAATTTGTAACCCACTGTTTTTCTCATTTCTCTTTTCGGAGTCACCTAGTGCAG | 9790 fluorescence intensity (a.u.)
ATCATGCTAATTACTCATAACTTAAGTCACAACACTTTGTCGGAGTCACCTAGTGCAG | 9930 fluorescence intensity (a.u.)
ACCGATGCCGACGTGCCATCCCTTTGTATCATTTCATTTCCGGAGTCACCTAGTGCAG | 10800 fluorescence intensity (a.u.)
TAAATATTAATTTTTCGTGCGGCCGTTAATTTGCCGTCAACGGAGTCACCTAGTGCAG | 9170 fluorescence intensity (a.u.)
AGTTGTAATGTTGTTTCCTGTCTTCCATCTTGATTAATGTCGGAGTCACCTAGTGCAG | 9180 fluorescence intensity (a.u.)
ACCGAATATACATTTGTCCGTATCCGGTCCTCTCCAACCTCGGAGTCACCTAGTGCAG | 8720 fluorescence intensity (a.u.)
TTCAATCTGTTGACCCTCGATATTTCATACGCGCGTGATACGGAGTCACCTAGTGCAG | 8670 fluorescence intensity (a.u.)
TCTGCTACACGGCCGGTCTACCTCCGTCCTGCTTCTGGTTCGGAGTCACCTAGTGCAG | 9120 fluorescence intensity (a.u.)
TAGACTATAAACCAAACACATACTCTCTTCGTTTCATATTCGGAGTCACCTAGTGCAG | 8420 fluorescence intensity (a.u.)
AGTTACCTTCTCTGCTTCAGATCACGTGTGCCACGTGTCCCGGAGTCACCTAGTGCAG | 8390 fluorescence intensity (a.u.)
GTATGTGTGTCTGGATTATTCCATAGTAGGATTTGCTAATCGGAGTCACCTAGTGCAG | 8380 fluorescence intensity (a.u.)
AGCCACTCCAGATCCAAAGACAACACCAGCAAGCAGCATTCGGAGTCACCTAGTGCAG | 8240 fluorescence intensity (a.u.)
TCGTCTTATCTCATACTTACGTAGTTGCGTTTTCATATAACGGAGTCACCTAGTGCAG | 8520 fluorescence intensity (a.u.)
ACCAGCCAGCACCGCCTCTATAAATACATACATGTTGCCACGGAGTCACCTAGTGCAG | 8710 fluorescence intensity (a.u.)
GTAGCAACATGCCGCATCTTCTTTTTTCGCTTATGTTTATCGGAGTCACCTAGTGCAG | 14100 fluorescence intensity (a.u.)

Random excerpt: 3 records from the list, in no set order.
Sequence | binding signal
TTGGTACTCACATCCACGCCACCTACTAATAACTAGTTAACGGAGTCACCTAGTGCAG | 8560 fluorescence intensity (a.u.)
TCTCTGAAACTACTCTGCTCGCTGCTGTCTCACACTCTCTCGGAGTCACCTAGTGCAG | 9080 fluorescence intensity (a.u.)
ATCATGCTAATTACTCATAACTTAAGTCACAACACTTTGTCGGAGTCACCTAGTGCAG | 9930 fluorescence intensity (a.u.)
